Laboratory results: PMC11738990
Certain results were filed several times, with different values. The list is limited to them. There may be further records. The records of an entry differ, and nothing given here explains why; dose, time, organism, isomer or construct need not be as stated for each record.

Test system: primary lung fibroblasts from healthy donors
Assay: FMT by α-SMA, high-content analysis

## CC(C)n1cnc(-c2ccc(F)cc2)c1-c1ncc(C(=O)Nc2ccc(N3CCN(C)CC3)cc2)[nH]1
  IC50: 200 nM and 320 nM
